Measured values from article PMC7948486.
These are yes or no findings as the source states them, for the method shown. Binding seen in cells or lysates may run through a third protein. Some results given as binding are weak or reduced against the parent protein; the word gives no strength. Sequences can lack the tags named with a protein.

T1: ELK-1 (UniProt P19419)
T1 sequence: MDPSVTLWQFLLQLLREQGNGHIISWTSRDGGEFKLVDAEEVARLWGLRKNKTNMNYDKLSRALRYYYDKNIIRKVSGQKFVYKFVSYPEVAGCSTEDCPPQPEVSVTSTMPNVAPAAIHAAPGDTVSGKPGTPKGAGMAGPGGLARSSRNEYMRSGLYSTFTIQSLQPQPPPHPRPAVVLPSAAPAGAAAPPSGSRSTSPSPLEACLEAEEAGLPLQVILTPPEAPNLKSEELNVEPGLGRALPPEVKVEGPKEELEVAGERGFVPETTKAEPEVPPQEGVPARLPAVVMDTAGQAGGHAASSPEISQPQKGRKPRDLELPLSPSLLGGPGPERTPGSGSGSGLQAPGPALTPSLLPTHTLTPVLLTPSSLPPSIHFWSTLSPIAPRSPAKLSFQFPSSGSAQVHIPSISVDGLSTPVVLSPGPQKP


Target: T1, ELK-1
Assay: co-IP; HEK293T cells co-transfected with ELK-1 (or deletion mutants) and FBXO25 (or S244L); lysed in co-IP buffer (25 mM Tris HCl pH 7.5, 150 mM KCl, 10 mM NaF, 1 mM Na3VO4, 1% NP-40); ELK-1 precipitated with polyclonal αElkC antibody overnight at 4 °C (preimmune control), protein G Sepharose; FBXO25 detected by αV5 immunoblot

| binding | Binder |
| --- | --- |
| binds | FBXO25 (V5/His-tagged) (protein, UniProt Q8TCJ0 1-367) MPFLGQDWRSPGWSWIKTEDGWKRCESCSQKLERENNRCNISHSIILNSEDGEIFNNEEHEYASKKRKKDHFRNDTNTQSFYREKWIYVHKESTKERHGYCTLGEAFNRLDFSSAIQDIRRFNYVVKLLQLIAKSQLTSLSGVAQKNYFNILDKIVQKVLDDHHNPRLIKDLLQDLSSTLCILIRGVGKSVLVGNINIWICRLETILAWQQQLQDLQMTKQVNNGLTLSDLPLHMLNNILYRFSDGWDIITLGQVTPTLYMLSEDRQLWKKLCQYHFAEKQFCRHLILSEKGHIEWKLMYFALQKHYPAKEQYGDTLHFCRHCSILFWKDYHLALLFKDSGHPCTAADPDSCFTPVSPQHFIDLFKF |
| binds | FBXO25-S244L (protein, UniProt Q8TCJ0 1-367) MPFLGQDWRSPGWSWIKTEDGWKRCESCSQKLERENNRCNISHSIILNSEDGEIFNNEEHEYASKKRKKDHFRNDTNTQSFYREKWIYVHKESTKERHGYCTLGEAFNRLDFSSAIQDIRRFNYVVKLLQLIAKSQLTSLSGVAQKNYFNILDKIVQKVLDDHHNPRLIKDLLQDLSSTLCILIRGVGKSVLVGNINIWICRLETILAWQQQLQDLQMTKQVNNGLTLSDLPLHMLNNILYRFLDGWDIITLGQVTPTLYMLSEDRQLWKKLCQYHFAEKQFCRHLILSEKGHIEWKLMYFALQKHYPAKEQYGDTLHFCRHCSILFWKDYHLALLFKDSGHPCTAADPDSCFTPVSPQHFIDLFKF |
